Source: patent publication US20170096487A1
Residue numbers refer to the chain shown, from its start. Results are given in words; binding and its absence hold for the method and conditions named. A result given as binding can be weak or reduced; the word gives no strength.

Columns and labels:
[1] = biological target: human HER3 (human); assay: Western blot on lysates of HER3-transfected HEK293 cells
[2] = biological target: human HER3 (human); assay: Western blot on lysates of fresh frozen NSCLC samples, 37 C
[3] = biological target: human HER3 (human); assay: IHC on FFPE NSCLC tissue, Ventana Benchmark XT
[4] = biological target: human HER3 (human); assay: IHC on FFPE HER3-transfected HEK293 cells, Ventana Benchmark XT
[5] = biological target: human HER3 (human); assay: Western blot on lysates of fresh frozen NSCLC samples with different HER3 expression levels, primary antibody at 37°C, HRP-conjugated anti-mouse Fab as secondary antibody
[6] = biological target: human HER3 (human); assay: IHC on FFPE human colon and lung tumour tissue, Ventana Benchmark XT, 125 ng/ml

Measured: binding

B1: MAK<humanHER3> M-7.2.42 (antibody, V domains shown)
VH: EVQLLQSGPELVKPGASVKMSCKASGYTFTDYNLHWVKQSHGRTLEWIGYFNPYNGGTFYTQKFKDKATLTINKSSSTAYMELRSLTSEDSAVYYCTRRYFDGSSYFDYWGQGTTLTVSS
VL: DVLMTQTPLSLPVSLGDQASISCRSSQTIVHSNGNTYLEWYVQKPGQSLKLLIYKVSNRFSGVPDRFSGSGSGTDFTLKISRVEAEDLGVYYCFQGSHVPRAFGGGTKLEIKR
binds: [1] | [2] | [3] | [4] | [5]

B2: MAK<humanHER3> M-7.3.8 (antibody, V domains shown)
VH: B1 VH with L5Q, V12A, R43K, P53T, T58I, Q112R
VL: B1 VL with T7I, T28S, L49P, V99A, A102T
binds: [6] | [1] | [4]
